{"source": "patent US20260232763A1", "about": "(Kadmon Corporation, LLC, priority 2023, published 2026)", "origin": "cited, not measured here", "key": {"[1]": {"test_system": "human T cell", "conditions": "via regulation of STAT3/STAT5 phosphorylation and shifting Th17/Treg balance; cited from earlier work"}, "[2]": {"test_system": "pro-fibrotic signaling", "conditions": "in vitro; cited from earlier work"}}, "note": "For at least one compound, name, drawing or mass did not settle the structure.", "data": [{"smiles": "CC(C)NC(=O)COc1cccc(-c2nc(Nc3ccc4[nH]ncc4c3)c3ccccc3n2)c1", "note": "[belumosudil, 2-{3-[4-(1H-indazol-5-ylamino)-2-quinazolinyl]phenoxy}-N-(propan-2-yl) acetamide]", "values": [{"measurement": "proinflammatory responses", "setting": "[1]", "value": "down-regulated"}, {"measurement": "aberrant pro-fibrotic signaling", "setting": "[2]", "value": "inhibited"}]}]}
